Measurements reported in article doi:10.1101/2025.07.05.663274.
These are yes or no findings as the source states them, for the method shown. Binding seen in cells or lysates may run through a third protein. Some entries that bind do so weakly or less than the wild type.

Chains of the proteins cited; added tags and fusions are not shown.
UniProt Q92481: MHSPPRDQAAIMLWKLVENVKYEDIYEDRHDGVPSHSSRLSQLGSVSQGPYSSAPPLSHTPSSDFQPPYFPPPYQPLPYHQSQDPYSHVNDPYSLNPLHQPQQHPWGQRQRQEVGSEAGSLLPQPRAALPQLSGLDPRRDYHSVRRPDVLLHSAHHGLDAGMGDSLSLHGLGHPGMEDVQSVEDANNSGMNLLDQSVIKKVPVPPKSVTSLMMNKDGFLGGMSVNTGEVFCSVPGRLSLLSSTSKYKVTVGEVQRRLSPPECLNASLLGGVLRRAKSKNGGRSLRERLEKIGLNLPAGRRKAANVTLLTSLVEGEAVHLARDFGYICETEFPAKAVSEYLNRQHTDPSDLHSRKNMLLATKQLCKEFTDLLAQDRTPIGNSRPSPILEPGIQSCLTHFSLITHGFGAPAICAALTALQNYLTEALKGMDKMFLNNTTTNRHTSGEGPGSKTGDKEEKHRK
UniProt P10275: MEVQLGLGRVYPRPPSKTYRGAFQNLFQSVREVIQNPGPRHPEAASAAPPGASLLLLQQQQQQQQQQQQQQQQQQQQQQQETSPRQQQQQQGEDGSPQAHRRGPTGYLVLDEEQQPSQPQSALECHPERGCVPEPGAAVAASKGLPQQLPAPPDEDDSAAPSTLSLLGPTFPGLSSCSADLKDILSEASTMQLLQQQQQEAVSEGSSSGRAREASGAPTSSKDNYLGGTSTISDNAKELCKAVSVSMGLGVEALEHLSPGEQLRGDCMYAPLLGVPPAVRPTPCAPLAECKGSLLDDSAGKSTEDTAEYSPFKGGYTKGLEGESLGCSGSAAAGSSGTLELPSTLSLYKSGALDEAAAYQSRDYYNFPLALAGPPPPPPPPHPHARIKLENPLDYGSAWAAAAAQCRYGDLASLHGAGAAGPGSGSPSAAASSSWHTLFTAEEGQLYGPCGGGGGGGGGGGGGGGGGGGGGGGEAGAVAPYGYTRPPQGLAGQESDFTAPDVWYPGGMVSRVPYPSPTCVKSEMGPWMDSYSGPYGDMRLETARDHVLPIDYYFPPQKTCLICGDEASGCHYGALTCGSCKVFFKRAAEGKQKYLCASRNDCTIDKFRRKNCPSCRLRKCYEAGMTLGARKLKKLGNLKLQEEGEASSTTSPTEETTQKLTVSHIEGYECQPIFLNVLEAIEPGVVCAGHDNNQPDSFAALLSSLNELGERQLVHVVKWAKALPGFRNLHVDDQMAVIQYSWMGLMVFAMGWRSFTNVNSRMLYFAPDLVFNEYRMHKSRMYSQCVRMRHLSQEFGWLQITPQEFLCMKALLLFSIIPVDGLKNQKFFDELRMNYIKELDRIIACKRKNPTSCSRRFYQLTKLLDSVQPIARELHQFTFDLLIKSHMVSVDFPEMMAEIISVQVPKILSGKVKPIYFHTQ

What was measured:
[1] = target: transcription factor Activating Protein 2β (human (endogenous in MDA-MB-453)) (UniProt Q92481); experiment: proximity ligation
[2] = target: transcription factor Activating Protein 2β (human (endogenous in MDA-MB-453)) (UniProt Q92481); experiment: proximity ligation; remark: listed apart in the source
[3] = target: transcription factor Activating Protein 2β (human (endogenous in MDA-MB-453)) (UniProt Q92481); experiment: co-IP

Measured: binding

androgen receptor (from UniProt P10275 1-920)
binds: [1] | [2] | [3]
